Assay [1] deals with T1, Myc-USP21 (ubiquitin-specific peptidase 21), wild type (human) (UniProt Q9UK80).
T1 sequence: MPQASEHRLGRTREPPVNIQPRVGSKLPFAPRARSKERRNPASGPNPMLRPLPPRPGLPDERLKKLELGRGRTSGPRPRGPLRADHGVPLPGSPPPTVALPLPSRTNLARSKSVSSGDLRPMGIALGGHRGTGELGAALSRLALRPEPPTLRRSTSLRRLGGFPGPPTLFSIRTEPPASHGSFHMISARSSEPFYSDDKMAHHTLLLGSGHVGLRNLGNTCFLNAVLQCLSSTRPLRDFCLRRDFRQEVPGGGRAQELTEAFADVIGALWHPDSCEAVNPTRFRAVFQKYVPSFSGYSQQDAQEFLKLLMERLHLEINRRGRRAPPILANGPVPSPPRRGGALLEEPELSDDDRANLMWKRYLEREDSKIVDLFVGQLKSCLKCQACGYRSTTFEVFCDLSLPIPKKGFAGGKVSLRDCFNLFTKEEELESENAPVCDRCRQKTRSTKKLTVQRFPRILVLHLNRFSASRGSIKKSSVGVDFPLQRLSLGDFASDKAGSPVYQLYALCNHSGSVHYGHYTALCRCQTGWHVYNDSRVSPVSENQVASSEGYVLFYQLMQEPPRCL
Briefly: co-IP; HEK293T cells co-transfected with Flag- and Myc-tagged constructs; lysis in HEPES buffer (20 mM HEPES, 50 mM NaCl, 0.5% Triton-X 100, 1 mM NaF); IP with anti-Flag or anti-Myc antibodies, protein A/G-agarose, 4 °C; western blot.

The chains behind the UniProt entries cited, without tags or fusion partners.
UniProt Q9H9S0: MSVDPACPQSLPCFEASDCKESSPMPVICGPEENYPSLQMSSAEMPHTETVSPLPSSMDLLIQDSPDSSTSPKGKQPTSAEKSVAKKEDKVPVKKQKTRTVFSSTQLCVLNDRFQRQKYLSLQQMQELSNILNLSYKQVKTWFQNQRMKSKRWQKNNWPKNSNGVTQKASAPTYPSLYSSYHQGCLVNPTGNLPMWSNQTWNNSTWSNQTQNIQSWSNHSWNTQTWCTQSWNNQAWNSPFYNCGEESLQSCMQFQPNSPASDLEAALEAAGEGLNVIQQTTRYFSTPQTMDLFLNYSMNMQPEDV

The target of assay [2] is T2, GST-USP21 (human) (UniProt Q9UK80).
T2 sequence: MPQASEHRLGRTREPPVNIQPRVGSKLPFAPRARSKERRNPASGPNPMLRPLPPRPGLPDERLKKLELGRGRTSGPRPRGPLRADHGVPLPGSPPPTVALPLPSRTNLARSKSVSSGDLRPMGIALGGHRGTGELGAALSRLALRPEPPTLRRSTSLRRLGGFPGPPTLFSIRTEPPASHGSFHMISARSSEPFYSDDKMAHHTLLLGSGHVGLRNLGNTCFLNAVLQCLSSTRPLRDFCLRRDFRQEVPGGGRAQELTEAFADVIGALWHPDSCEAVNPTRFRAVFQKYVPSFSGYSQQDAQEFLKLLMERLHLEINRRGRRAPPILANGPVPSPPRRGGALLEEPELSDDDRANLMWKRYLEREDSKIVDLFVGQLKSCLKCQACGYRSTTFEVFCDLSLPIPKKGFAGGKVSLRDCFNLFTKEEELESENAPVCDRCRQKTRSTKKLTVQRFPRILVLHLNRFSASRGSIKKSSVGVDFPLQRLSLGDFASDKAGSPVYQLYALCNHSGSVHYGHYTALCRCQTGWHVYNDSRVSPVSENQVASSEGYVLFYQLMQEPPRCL
Briefly: pull-down; GST or GST-USP21 from E. coli BL21 immobilized on glutathione-Sepharose 4B beads, incubated with purified His-Nanog for 8–12 h at 4 °C; blotted with anti-His or anti-GST; both purified.

For assay [3], the target named is T3, endogenous Nanog of mouse ESCs (E14) (mouse (endogenous in E14)) (UniProt Q80Z64).
T3 sequence: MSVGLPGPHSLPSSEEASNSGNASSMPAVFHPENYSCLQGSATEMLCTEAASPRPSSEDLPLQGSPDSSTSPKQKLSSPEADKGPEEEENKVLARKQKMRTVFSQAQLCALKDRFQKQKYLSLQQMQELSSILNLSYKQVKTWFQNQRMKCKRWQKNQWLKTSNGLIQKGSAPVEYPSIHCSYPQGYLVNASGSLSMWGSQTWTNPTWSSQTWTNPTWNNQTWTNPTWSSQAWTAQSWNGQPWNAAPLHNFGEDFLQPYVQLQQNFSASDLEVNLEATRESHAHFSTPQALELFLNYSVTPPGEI
Briefly: co-IP; endogenous proteins in E14 and NCCIT cell lysates; IP with control IgG, anti-Nanog or USP21 antibodies; western blot. For orientation: In western blotting, separated proteins are transferred to a membrane and probed.

Results are given in words; binding and its absence hold for the method and conditions named. For part of these data: In cells and extracts the contact can be indirect. Some binding calls cover weakened binding; strength is not graded here. For part of these data: Sequences can lack the tags named with a protein.

Regarding Flag-Nanog (from UniProt Q9H9S0 1-305), the binding entry in assay [1] is “binds”.

Consider His-Nanog (from UniProt Q9H9S0 1-305), for which the binding entry in assay [2] is recorded as “binds”.

B1: endogenous USP21 of mouse ESCs (E14) (enzyme, UniProt Q9QZL6 1-566)
chain: MPQASEHRLGRTREPPVNVQPRVGAKIPFPPRARSKERRNPVPGPNSMLRPLPPRPGPPDERLKKLELGRGRTSGSRPRGPLRADHGVPLPGSPPPAVALPLPSRTNLARSKSVSSGDLRPMGIALGGHRGAGELGAALSRLALRPEPPTLRRSTSLRRLGGFPGPPTLLSIRTEPPTSHGSFHMISARPSEPFYSDDKMAHHTLLLGSGHVGLRNLGNTCFLNAVLQCLSSTRPLRDFCLRRDFRQEVPGGGRAQELTEAFADVIGALWHPDSCEAVNPTRFRAVFQKYVPSFSGYSQQDAQEFLKLLMERLHLEINRRGRRAPPILASGPVPSPPRRGGGALHEEPELSDDDRANLMWKRYLEREDSKIVDLFVGQLKSCLKCQACGYRSTTFEVFCDLSLPIPKKGFAGGKVSLRDCFSLFTKEEELESENAPVCDRCRQKTRSTKKLTVQRFPRILVLHLNRFSTSRGSIKKSSVGVDFPLQRLSLGDFASDKAGSPVYQLYALCNHSGSVHYGHYTALCRCQTGWHVYNDSRVSPVSENQVASSEGYVLFYQLMQEPLRCL
In the case of B1, the binding result in assay [3] was “binds”.

The record behind these values is paper PMC5661642.
